For experiment [1], the target named is Rec domain of CckA (CckA^Rec, residues 568-691) (Caulobacter crescentus) (UniProt Q9X688). Nature of the experiment: crystal structure; X-ray, 1.25 Å, one molecule per asymmetric unit; 0.15 M KSCN, 0.1 M Na cacodylate pH 6.5, 20% v/v PEG 600, room temperature; both purified.
The target is the same in experiment [2]. Nature of the experiment: SEC-MALS; Superdex 200 10/300 Increase; loading concentrations 13.8, 6.9 and 3.5 mg/ml; 25 C; sample buffer; both purified. Background: SEC sorts molecules by how far they enter the pores of the column.
The target in experiment [3] is BeF3^- bound (activated) CckA^Rec (Caulobacter crescentus) (UniProt Q9X688). Nature of the experiment: NMR line widths (2D [15N,1H]-HSQC); 0.8 mM protein, 30 mM MES pH 6.8, 100 mM NaCl, 5 mM MgCl2, 25 C, 700 MHz; with and without bound BeF3^-; both purified.

No constants are given. Whether binding was seen depends on the method and setting.

B1: Rec domain of CckA (CckA^Rec, residues 568-691) (domain or fragment, UniProt Q9X688 568-691)
chain: SGAGRILFVEDEDAVRSVAARLLRARGYEVLEAADGEEALIIAEENAGTIDLLISDVIMPGIDGPTLLKKARGYLGTAPVMFISGYAEAEFSDLLEGETGVTFLPKPIDIKTLAERVKQQLQAA
In the case of B1, the binding result in experiment [1] is listed as “no binding”; in experiment [2] it was “no binding (tested: around 1 mM)”.

B2: BeF3^- bound (activated) CckA^Rec (domain or fragment, UniProt Q9X688 568-691)
chain: SGAGRILFVEDEDAVRSVAARLLRARGYEVLEAADGEEALIIAEENAGTIDLLISDVIMPGIDGPTLLKKARGYLGTAPVMFISGYAEAEFSDLLEGETGVTFLPKPIDIKTLAERVKQQLQAA
modifications: bound BeF3^- (beryllofluoride, phosphoryl-mimic); [U-15N,13C]-labeled
Regarding B2, the binding result in experiment [3] is given as “no binding (tested: 0.8 mM)”.

(Values after paper PMC9981736.)
